Read-outs that look alike come from different tables or passages of the source. Some of these results come from one statement about several compounds together. At least one compound was matched to its structure with a doubt left.
What was measured:
[1] = tested on: potato leafhopper (Empoasca fabae); type: in vivo; conditions: Soleil bean plant, 6 days
[2] = tested on: diamondback moth (Plutella xylostella); assay: Test A: control of diamondback moth, foliar spray on pre-infested radish plant; type: in vivo; conditions: sprayed at 250 ppm, 6 days at 25° C., very good to excellent control

Compound	mortality ([1]; sprayed at 50 ppm)	control efficacy: feeding damage (40% or less feeding damage and/or 100% mortality) [2]	mortality ([1]; sprayed at 250 ppm)
O=c1c(-c2cccc(C(F)(F)F)c2)c([O-])[n+](Cc2ccc(F)nc2)c2ccccn12 [Compound 203]	≥ 80%	≤ 40%	–
CCC[n+]1c([O-])c(-c2cccc(C(F)(F)F)c2F)c(=O)n2ccccc21 [Compound 347]	–	≤ 40%	≥ 80%
O=c1c(-c2cc(OC(F)(F)F)ccc2F)c([O-])[n+](CC(F)(F)F)c2ccccn12 [Compound 14]	≥ 80%	≤ 40%	≥ 80%
CCC[n+]1c([O-])c(-c2cccc(C)c2)c(=O)n2ccccc21 [Compound 289]	–	≤ 40%	≥ 80%
CCC[n+]1c([O-])c(-c2cccc(OC(F)(F)F)c2)c(=O)n2c1CCCC2 [Compound 515]	≥ 80%	≤ 40%	≥ 80%
O=c1c(-c2ccc(F)cc2)c([O-])[n+](Cc2cnc(Cl)s2)c2c(C(F)(F)F)cccn12 [Compound 756]	≥ 80%	≤ 40%	–
CCC[n+]1c([O-])c(-c2ccc(F)c(Cl)c2)c(=O)n2ccccc21 [Compound 406]	–	≤ 40%	≥ 80%
CCC[n+]1c([O-])c(-c2ccc(C)cc2)c(=O)n2ccccc21 [Compound 286]	–	≤ 40%	≥ 80%
O=c1c(-c2cccc([N+](=O)[O-])c2)c([O-])[n+](CC(F)(F)F)c2ccccn12 [Compound 426]	–	≤ 40%	≥ 80%
O=c1c(-c2ccc(F)c(Br)c2)c([O-])[n+](CC(F)(F)F)c2ccccn12 [Compound 24]	≥ 80%	≤ 40%	≥ 80%
O=c1c(-c2ccc3c(c2)OCO3)c([O-])[n+](CC(F)(F)F)c2ccccn12 [Compound 431]	≥ 80%	≤ 40%	≥ 80%
CCC[n+]1c([O-])c(-c2ccc(C(F)(F)F)cc2F)c(=O)n2ccccc21 [Compound 340]	≥ 80%	≤ 40%	≥ 80%
O=c1c(-c2cc(F)c(F)cc2F)c([O-])[n+](Cc2ccc(Cl)nc2)c2ccccn12 [Compound 78]	≥ 80%	≤ 40%	≥ 80%
O=c1c(-c2c(F)ccc(Cl)c2F)c([O-])[n+](Cc2ccc(Cl)nc2)c2ccccn12 [Compound 666]	≥ 80%	≤ 40%	–
Cc1cc(C#N)ccc1-c1c([O-])[n+](Cc2ccc(Cl)nc2)c2ccccn2c1=O [Compound 90]	≥ 80%	≤ 40%	≥ 80%
CCC[n+]1c([O-])c(-c2ccc(F)c(F)c2)c(=O)n2ccccc21 [Compound 405]	–	≤ 40%	≥ 80%
CC[n+]1c([O-])c(-c2ccccc2)c(=O)n2ccccc21 [Compound 278]	–	≤ 40%	≥ 80%
O=c1c(-c2cccc(OC(F)(F)F)c2)c([O-])[n+](Cc2ccc(Cl)nc2)c2c(C(F)(F)F)cccn12 [Compound 753]	≥ 80%	≤ 40%	–
O=c1c(-c2ccc3c(c2)OC(F)(F)O3)c([O-])[n+](Cc2ccc(Cl)nc2)c2ccccn12 [Compound 446]	–	≤ 40%	≥ 80%
O=c1c(-c2cc(C(F)(F)F)ccc2Cl)c([O-])[n+](Cc2ccc(Cl)nc2)c2ccccn12 [Compound 236]	≥ 80%	≤ 40%	–
COc1ccccc1-c1c([O-])[n+](CC(F)(F)F)c2ccccn2c1=O [Compound 17]	≥ 80%	≤ 40%	≥ 80%
O=c1c(-c2cccc(Cl)c2Cl)c([O-])[n+](CC(F)(F)F)c2ccccn12 [Compound 9]	≥ 80%	≤ 40%	≥ 80%
COc1cc(OC)cc(-c2c([O-])[n+](CC(F)(F)F)c3ccccn3c2=O)c1 [Compound 199]	≥ 80%	≤ 40%	–
COc1cccc(-c2c([O-])[n+](Cc3ccc(F)nc3)c3ccccn3c2=O)c1 [Compound 208]	≥ 80%	≤ 40%	–

Compound	mortality ([1]; sprayed at 50 ppm)	control efficacy: feeding damage (40% or less feeding damage and/or 100% mortality) [2]	mortality ([1]; sprayed at 250 ppm)
O=c1c(-c2cc(OC(F)(F)F)ccc2Cl)c([O-])[n+](Cc2ccc(F)nc2)c2ccccn12 [Compound 264]	≥ 80%	≤ 40%	–
O=c1c(-c2c(F)cc(F)cc2F)c([O-])[n+](Cc2ccc(Cl)nc2)c2ccccn12 [Compound 108]	≥ 80%	≤ 40%	≥ 80%
O=c1c(-c2ccccc2)c([O-])[n+](CC(F)=C(F)F)c2ccccn12 [Compound 37]	–	≤ 40%	≥ 80%
O=c1c(-c2ccccc2I)c([O-])[n+](Cc2cnc(Cl)s2)c2ccccn12 [Compound 274]	≥ 80%	≤ 40%	–
CC([n+]1c([O-])c(-c2ccccc2F)c(=O)n2ccccc21)C(F)(F)F (stereo not drawn) [Compound 237]	≥ 80%	≤ 40%	≥ 80%
Cc1cnc(C[n+]2c([O-])c(-c3cccc(OC(F)(F)F)c3)c(=O)n3ccccc32)cn1 [Compound 97]	≥ 80%	≤ 40%	≥ 80%
CC(C)C[n+]1c([O-])c(-c2ccccc2)c(=O)n2ccccc21 [Compound 279]	–	≤ 40%	≥ 80%
O=c1c(-c2ccc(F)cc2Cl)c([O-])[n+](Cc2cnc(Cl)s2)c2ccccn12 [Compound 474]	≥ 80%	≤ 40%	≥ 80%
O=c1c(-c2ccc(Br)cc2)c([O-])[n+](CC(F)(F)F)c2ccccn12 [Compound 364]	≥ 80%	≤ 40%	≥ 80%
N#Cc1ccc(-c2c([O-])[n+](Cc3ccc(F)nc3)c3ccccn3c2=O)cc1 [Compound 207]	≥ 80%	≤ 40%	–
CC(c1ccc(F)nc1)[n+]1c([O-])c(-c2cccc(OC(F)(F)F)c2)c(=O)n2ccccc21 (stereo not drawn) [Compound 259]	≥ 80%	≤ 40%	–
O=c1c(-c2cccc(C(F)(F)F)c2F)c([O-])[n+](Cc2ccc(F)nc2)c2ccccn12 [Compound 266]	≥ 80%	≤ 40%	–
Cc1cccc(-c2c([O-])[n+](CC(F)(F)F)c3ccccn3c2=O)c1 [Compound 363]	≥ 80%	≤ 40%	≥ 80%
O=c1c(-c2ccccc2)c([O-])[n+](Cc2ccc(Br)nc2)c2ccccn12 [Compound 470]	≥ 80%	≤ 40%	≥ 80%
O=c1c(-c2cc(C(F)(F)F)ccc2F)c([O-])[n+](Cc2ccc(Cl)nc2)c2sccn12 [Compound 153]	≥ 80%	≤ 40%	–
O=c1c(-c2ccc3c(c2)OCO3)c([O-])[n+](Cc2ccc(Cl)nc2)c2ccccn12 [Compound 98]	≥ 80%	≤ 40%	≥ 80%
O=c1c(-c2ccc(F)cc2)c([O-])[n+](CC2CC2(F)F)c2ccccn12 (stereo not drawn) [Compound 483]	≥ 80%	≤ 40%	≥ 80%
O=c1c(-c2ccccc2)c([O-])[n+](CCC(F)C(F)(F)Cl)c2ccccn12 (stereo not drawn) [Compound 327]	≥ 80%	≤ 40%	≥ 80%
O=c1c(-c2ccccc2)c([O-])[n+](Cc2cnc(Cl)s2)c2sccn12 [Compound 139]	≥ 80%	≤ 40%	–
CCC[n+]1c([O-])c(-c2ccc(OC(F)(F)F)cc2)c(=O)n2ccccc21 [Compound 302]	–	≤ 40%	≥ 80%
O=c1c(-c2cccc(OCC(F)(F)F)c2)c([O-])[n+](Cc2ccc(Cl)nc2)c2ccccn12 [Compound 459]	–	≤ 40%	≥ 80%
N#Cc1ccc(-c2c([O-])[n+](Cc3cnc(Cl)s3)c3ccccn3c2=O)c(F)c1 [Compound 469]	≥ 80%	≤ 40%	≥ 80%
COc1cc(OC)cc(-c2c([O-])[n+](Cc3ccc(F)nc3)c3ccccn3c2=O)c1 [Compound 202]	≥ 80%	≤ 40%	–
O=c1c(-c2cccc(C(F)(F)F)c2)c([O-])[n+](CC(F)(F)F)c2ccccn12 [Compound 6]	≥ 80%	≤ 40%	≥ 80%
